Drawing on article PMC11523043, this text covers binding for three molecules.

Assay in all cases: co-IP; lysates of cells (HEK293, HeLa or H1299) transfected with the Flag-tagged bait, anti-Flag (M2) agarose, 4°C for 4 hours, 50 mmol/L Tris-HCl pH 8.0, 0.5% Nonidet P-40, 150 mmol/L NaCl; endogenous partner detected by IB; for Flag-USP36 also in the presence of 100 μg/mL RNase A and 100 U/mL RNase T1
In one assay the target is T1, Flag-tagged Las1L (UniProt Q9Y4W2).
T1 sequence: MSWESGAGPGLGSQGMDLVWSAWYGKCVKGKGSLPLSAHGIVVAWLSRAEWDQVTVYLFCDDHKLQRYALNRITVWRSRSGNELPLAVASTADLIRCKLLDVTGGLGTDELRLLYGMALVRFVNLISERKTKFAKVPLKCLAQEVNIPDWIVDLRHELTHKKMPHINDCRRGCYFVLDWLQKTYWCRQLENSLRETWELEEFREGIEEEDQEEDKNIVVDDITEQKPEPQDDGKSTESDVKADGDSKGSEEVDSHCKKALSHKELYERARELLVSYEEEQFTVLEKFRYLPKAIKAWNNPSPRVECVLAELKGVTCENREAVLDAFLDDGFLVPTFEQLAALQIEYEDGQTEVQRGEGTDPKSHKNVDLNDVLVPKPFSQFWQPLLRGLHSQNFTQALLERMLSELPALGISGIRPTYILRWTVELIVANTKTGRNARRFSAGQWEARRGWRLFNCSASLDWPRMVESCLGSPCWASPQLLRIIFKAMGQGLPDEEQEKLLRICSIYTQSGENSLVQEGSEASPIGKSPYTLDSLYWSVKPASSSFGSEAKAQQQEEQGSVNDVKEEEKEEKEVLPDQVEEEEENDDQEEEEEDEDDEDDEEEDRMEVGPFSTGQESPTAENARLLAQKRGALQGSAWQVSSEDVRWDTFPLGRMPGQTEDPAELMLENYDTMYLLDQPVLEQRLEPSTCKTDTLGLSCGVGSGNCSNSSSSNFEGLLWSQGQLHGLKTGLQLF

Assay [1] has as its target Flag-USP36 N-terminal ubiquitin-specific protease domain.
The target of assay [2] is Flag-USP36 central region.

These are yes or no findings as the source states them, for the method shown. In cells and extracts the contact can be indirect. For some assays here: Sequences can lack the tags named with a protein.

As to RPS27a (human (endogenous in HEK293)), the binding entry in the assay with Flag-tagged Las1L is reported as “no binding”.

B1: endogenous Las1L (enzyme, UniProt Q9Y4W2 1-734)
chain: T1 sequence
Turning to B1, the binding entry in assay [1] and in assay [2] was “no binding” in each case.

B2: endogenous Nol9 (enzyme, UniProt Q5SY16 1-702)
chain: MADSGLLLKRGSCRSTWLRVRKARPQLILSRRPRRRLGSLRWCGRRRLRWRLLQAQASGVDWREGARQVSRAAAARRPNTATPSPIPSPTPASEPESEPELESASSCHRPLLIPPVRPVGPGRALLLLPVEQGFTFSGICRVTCLYGQVQVFGFTISQGQPAQDIFSVYTHSCLSIHALHYSQPEKSKKELKREARNLLKSHLNLDDRRWSMQNFSPQCSIVLLEHLKTATVNFITSYPGSSYIFVQESPTPQIKPEYLALRSVGIRREKKRKGLQLTESTLSALEELVNVSCEEVDGCPVILVCGSQDVGKSTFNRYLINHLLNSLPCVDYLECDLGQTEFTPPGCISLLNITEPVLGPPFTHLRTPQKMVYYGKPSCKNNYENYIDIVKYVFSAYKRESPLIVNTMGWVSDQGLLLLIDLIRLLSPSHVVQFRSDHSKYMPDLTPQYVDDMDGLYTKSKTKMRNRRFRLAAFADALEFADEEKESPVEFTGHKLIGVYTDFAFRITPRNRESHNKILRDLSILSYLSQLQPPMPKPLSPLHSLTPYQVPFNAVALRITHSDVAPTHILYAVNASWVGLCKIQDDVRGYTNGPILLAQTPICDCLGFGICRGIDMEKRLYHILTPVPPEELRTVNCLLVGAIAIPHCVLKCQRGIEGTVPYVTTDYNFKLPGASEKIGAREPEEAHKEKPYRRPKFCRKMK
With B2, the binding result in assay [1] and in assay [2] was “no binding” in each case.
